Experimental data: publication PMC4287497, “Phosphorylation of Elp1 by Hrr25 Is Required for Elongator-Dependent tRNA Modification in Yeast” (PLoS Genetics, 2015)
These are yes or no findings as the source states them, for the method shown. For some of these results: Binding seen in cells or lysates may run through a third protein. Some entries that bind do so weakly or less than the wild type. For some of these results: Where a sequence is shown, tags or fusion partners need not be part of it.

T1: Elp2-myc3 (S. cerevisiae) (UniProt P42935)
T1 sequence: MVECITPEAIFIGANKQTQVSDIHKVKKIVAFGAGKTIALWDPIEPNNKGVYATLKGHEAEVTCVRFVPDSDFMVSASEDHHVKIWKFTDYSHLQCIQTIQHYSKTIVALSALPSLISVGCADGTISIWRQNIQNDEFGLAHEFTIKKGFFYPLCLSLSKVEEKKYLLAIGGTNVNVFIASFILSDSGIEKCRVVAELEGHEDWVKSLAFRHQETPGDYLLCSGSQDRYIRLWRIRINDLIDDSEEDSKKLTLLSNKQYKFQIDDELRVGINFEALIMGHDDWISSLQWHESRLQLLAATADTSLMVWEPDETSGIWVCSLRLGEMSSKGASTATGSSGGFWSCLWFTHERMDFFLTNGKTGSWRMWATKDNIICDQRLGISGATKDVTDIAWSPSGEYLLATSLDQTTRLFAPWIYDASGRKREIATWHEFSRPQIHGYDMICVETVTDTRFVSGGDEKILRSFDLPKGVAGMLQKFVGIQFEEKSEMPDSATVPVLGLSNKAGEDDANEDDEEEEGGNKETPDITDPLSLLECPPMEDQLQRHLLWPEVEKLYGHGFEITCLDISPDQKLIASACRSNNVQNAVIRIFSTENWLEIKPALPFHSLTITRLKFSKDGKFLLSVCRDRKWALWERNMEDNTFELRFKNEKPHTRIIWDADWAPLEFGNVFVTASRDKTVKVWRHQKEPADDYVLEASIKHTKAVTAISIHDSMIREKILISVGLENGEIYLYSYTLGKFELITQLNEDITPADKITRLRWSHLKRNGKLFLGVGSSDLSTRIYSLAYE

T2: Elp3-TAP (S. cerevisiae) (UniProt Q02908)
T2 sequence: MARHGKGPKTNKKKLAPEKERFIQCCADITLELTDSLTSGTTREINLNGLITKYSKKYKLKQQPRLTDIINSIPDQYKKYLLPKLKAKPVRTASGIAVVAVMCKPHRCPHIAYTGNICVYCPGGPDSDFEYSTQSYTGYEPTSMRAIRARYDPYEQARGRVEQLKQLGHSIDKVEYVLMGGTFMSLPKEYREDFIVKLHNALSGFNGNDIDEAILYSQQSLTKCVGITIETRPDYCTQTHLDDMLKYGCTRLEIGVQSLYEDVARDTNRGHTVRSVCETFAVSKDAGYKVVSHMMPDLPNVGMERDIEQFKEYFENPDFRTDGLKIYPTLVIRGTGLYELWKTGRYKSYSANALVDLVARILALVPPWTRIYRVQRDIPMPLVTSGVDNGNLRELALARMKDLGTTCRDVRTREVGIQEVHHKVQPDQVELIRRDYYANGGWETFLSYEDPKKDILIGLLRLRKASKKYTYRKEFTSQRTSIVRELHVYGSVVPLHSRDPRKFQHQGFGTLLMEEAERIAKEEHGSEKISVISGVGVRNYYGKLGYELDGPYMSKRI


Assays:
[1] = molecular target: T1, Elp2-myc3 (S. cerevisiae); assay: co-IP; Elp2-myc immunoprecipitated from extracts of elp1Δ yeast strains carrying plasmid-borne ELP1-6HA alleles (antibody coupled to Dynabeads, B60 buffer); Western blot with anti-myc, anti-HA and anti-Hrr25
[2] = molecular target: T2, Elp3-TAP (S. cerevisiae); assay: tandem affinity purification with Western blot; Elongator purified by Elp3-TAP from elp1Δ ELP3-TAP strains carrying ELP1-6HA alleles; Western blot for Elp3-TAP and Elp1-6HA

Binder | binding [1] | binding [2]
Elp1-S1209D-6HA (protein, UniProt Q06706 1-1349) MVEHDKSGSKRQELRSNMRNLITLNKGKFKPTASTAEGDEDDLSFTLLDSVFDTLSDSITCVLGSTDIGAIEVQQFMKDGSRNVLASFNIQTFDDKLLSFVHFADINQLVFVFEQGDIITATYDPVSLDPAETLIEIMGTIDNGIAAAQWSYDEETLAMVTKDRNVVVLSKLFEPISEYHLEVDDLKISKHVTVGWGKKETQFRGKGARAMEREALASLKASGLVGNQLRDPTMPYMVDTGDVTALDSHEITISWRGDCDYFAVSSVEEVPDEDDETKSIKRRAFRVFSREGQLDSASEPVTGMEHQLSWKPQGSLIASIQRKTDLGEEDSVDVIFFERNGLRHGEFDTRLPLDEKVESVCWNSNSEALAVVLANRIQLWTSKNYHWYLKQELYASDISYVKWHPEKDFTLMFSDAGFINIVDFAYKMAQGPTLEPFDNGTSLVVDGRTVNITPLALANVPPPMYYRDFETPGNVLDVACSFSNEIYAAINKDVLIFAAVPSIEEMKKGKHPSIVCEFPKSEFTSEVDSLRQVAFINDSIVGVLLDTDNLSRIALLDIQDITQPTLITIVEVYDKIVLLRSDFDYNHLVYETRDGTVCQLDAEGQLMEITKFPQLVRDFRVKRVHNTSAEDDDNWSAESSELVAFGITNNGKLFANQVLLASAVTSLEITDSFLLFTTAQHNLQFVHLNSTDFKPLPLVEEGVEDERVRAIERGSILVSVIPSKSSVVLQATRGNLETIYPRIMVLAEVRKNIMAKRYKEAFIVCRTHRINLDILHDYAPELFIENLEVFINQIGRVDYLNLFISCLSEDDVTKTKYKETLYSGISKSFGMEPAPLTEMQIYMKKKMFDPKTSKVNKICDAVLNVLLSNPEYKKKYLQTIITAYASQNPQNLSAALKLISELENSEEKDSCVTYLCFLQDVNVVYKSALSLYDVSLALLVAQKSQMDPREYLPFLQELQDNEPLRRKFLIDDYLGNYEKALEHLSEIDKDGNVSEEVIDYVESHDLYKHGLALYRYDSEKQNVIYNIYAKHLSSNQMYTDAAVAYEMLGKLKEAMGAYQSAKRWREAMSIAVQKFPEEVESVAEELISSLTFEHRYVDAADIQLEYLDNVKEAVALYCKAYRYDIASLVAIKAKKDELLEEVVDPGLGEGFGIIAELLADCKGQINSQLRRLRELRAKKEENPYAFYGQETEQADDVSVAPSETSTQEDFFTRYTGKTGGTAKTGASRRTAKNKRREERKRARGKKGTIYEEEYLVQSVGRLIERLNQTKPDAVRVVEGLCRRNMREQAHQIQKNFVEVLDLLKANVKEIYSISEKDRERVNENGEVYYIPEIPVPEIHDFPKSHIVDF |  | binds
Elp1-S1198A S1202A T1204A S1205A T1206A-6HA (protein, UniProt Q06706 1-1349) MVEHDKSGSKRQELRSNMRNLITLNKGKFKPTASTAEGDEDDLSFTLLDSVFDTLSDSITCVLGSTDIGAIEVQQFMKDGSRNVLASFNIQTFDDKLLSFVHFADINQLVFVFEQGDIITATYDPVSLDPAETLIEIMGTIDNGIAAAQWSYDEETLAMVTKDRNVVVLSKLFEPISEYHLEVDDLKISKHVTVGWGKKETQFRGKGARAMEREALASLKASGLVGNQLRDPTMPYMVDTGDVTALDSHEITISWRGDCDYFAVSSVEEVPDEDDETKSIKRRAFRVFSREGQLDSASEPVTGMEHQLSWKPQGSLIASIQRKTDLGEEDSVDVIFFERNGLRHGEFDTRLPLDEKVESVCWNSNSEALAVVLANRIQLWTSKNYHWYLKQELYASDISYVKWHPEKDFTLMFSDAGFINIVDFAYKMAQGPTLEPFDNGTSLVVDGRTVNITPLALANVPPPMYYRDFETPGNVLDVACSFSNEIYAAINKDVLIFAAVPSIEEMKKGKHPSIVCEFPKSEFTSEVDSLRQVAFINDSIVGVLLDTDNLSRIALLDIQDITQPTLITIVEVYDKIVLLRSDFDYNHLVYETRDGTVCQLDAEGQLMEITKFPQLVRDFRVKRVHNTSAEDDDNWSAESSELVAFGITNNGKLFANQVLLASAVTSLEITDSFLLFTTAQHNLQFVHLNSTDFKPLPLVEEGVEDERVRAIERGSILVSVIPSKSSVVLQATRGNLETIYPRIMVLAEVRKNIMAKRYKEAFIVCRTHRINLDILHDYAPELFIENLEVFINQIGRVDYLNLFISCLSEDDVTKTKYKETLYSGISKSFGMEPAPLTEMQIYMKKKMFDPKTSKVNKICDAVLNVLLSNPEYKKKYLQTIITAYASQNPQNLSAALKLISELENSEEKDSCVTYLCFLQDVNVVYKSALSLYDVSLALLVAQKSQMDPREYLPFLQELQDNEPLRRKFLIDDYLGNYEKALEHLSEIDKDGNVSEEVIDYVESHDLYKHGLALYRYDSEKQNVIYNIYAKHLSSNQMYTDAAVAYEMLGKLKEAMGAYQSAKRWREAMSIAVQKFPEEVESVAEELISSLTFEHRYVDAADIQLEYLDNVKEAVALYCKAYRYDIASLVAIKAKKDELLEEVVDPGLGEGFGIIAELLADCKGQINSQLRRLRELRAKKEENPYAFYGQETEQADDVAVAPAEAAAQESFFTRYTGKTGGTAKTGASRRTAKNKRREERKRARGKKGTIYEEEYLVQSVGRLIERLNQTKPDAVRVVEGLCRRNMREQAHQIQKNFVEVLDLLKANVKEIYSISEKDRERVNENGEVYYIPEIPVPEIHDFPKSHIVDF | binds | 

Results, then the binder that gave them:

binding [1] | binding [2] | Binder
binds |  | Elp5-HA (protein, UniProt P38874 1-309) MASSSHNPVILLKRILSLTESSPFILCLDSIAQTSYKLIQEFVHQSKSKGNEYPIVYISFETVNKPSYCTQFIDATQMDFVHLVKQIISYLPAATATQAKKHMVIIDSLNYISTEYITRFLSEIASPHCTMVATYHKDIKDENRTVIPDWNNNYPDKLTLLQFMATTIVDIDVVLTGTLDTEEVSELLNEFRIPRGLNNDIFQLRLVNKRKSGRSLEYDFIVNSNTHEYELLSTTKQEEESSSNGLETPEMLQGLTTFNLGTSNKQKLAKDQVALPFLEAQSFGQGGAIVYEYEKDDDYDEEDPYEDPF
binds |  | Elp3-HA (protein, UniProt Q02908 1-557) MARHGKGPKTNKKKLAPEKERFIQCCADITLELTDSLTSGTTREINLNGLITKYSKKYKLKQQPRLTDIINSIPDQYKKYLLPKLKAKPVRTASGIAVVAVMCKPHRCPHIAYTGNICVYCPGGPDSDFEYSTQSYTGYEPTSMRAIRARYDPYEQARGRVEQLKQLGHSIDKVEYVLMGGTFMSLPKEYREDFIVKLHNALSGFNGNDIDEAILYSQQSLTKCVGITIETRPDYCTQTHLDDMLKYGCTRLEIGVQSLYEDVARDTNRGHTVRSVCETFAVSKDAGYKVVSHMMPDLPNVGMERDIEQFKEYFENPDFRTDGLKIYPTLVIRGTGLYELWKTGRYKSYSANALVDLVARILALVPPWTRIYRVQRDIPMPLVTSGVDNGNLRELALARMKDLGTTCRDVRTREVGIQEVHHKVQPDQVELIRRDYYANGGWETFLSYEDPKKDILIGLLRLRKASKKYTYRKEFTSQRTSIVRELHVYGSVVPLHSRDPRKFQHQGFGTLLMEEAERIAKEEHGSEKISVISGVGVRNYYGKLGYELDGPYMSKRI
